Reference: patent publication US20250147039A1, “Compounds for complexation of rare earth elements and/or s-, p-, d- block metals, their coordination compounds, peptide conjugates, method of their preparation and use thereof” (USTAV ORGANICKE CHEMIE A BIOCHEMIE AV CR V.V.I., priority 2021, published 2025)
At least one compound was matched to its structure with a doubt left.

How the values were obtained:
Type in all cases: physicochemical
[1] = Dissociation of chelates in aq. 1.0M HCl at 80° C. (acid decomplexation kinetic inertness) (Chart 18); details: exponential decay fit
[2] = Dissociation of chelates in aq. 6.0M HCl at 80° C. (acid decomplexation kinetic inertness) (Chart 17)
[3] = Dissociation of chelates in aq. 0.1M HCl at 80° C. (acid decomplexation kinetic inertness) (Chart 19); details: exponential decay fit
[4] = Dissociation of chelates in aq. 0.1M HCl at RT (acid decomplexation kinetic inertness) (Chart 20); details: exponential decay fit

O=C1C[N@@]2CC[N@]3CC[N@@](CC[N@](CC2)Cc2cccc(n2)-c2cnnn2Cc2cc(-c4ccccc4)cc(n2)C3)CC(=O)[O][Cd][O]1 [TD880]
t1/2 (half-life of chelate dissociation) [1]: 1.1E^3 ± 7.7E^0 hours | t1/2 (half-life of chelate dissociation, exponential decay fit) [2]: 1.2E^0 hours | t1/2 (half-life of chelate dissociation) [3]: too stable | t1/2 (half-life of chelate dissociation) [4]: too stable

O=C1C[N@@]2CC[N@]3CC[N@@](CC[N@](CC2)Cc2cccc(n2)-c2cn(nn2)Cc2cc(-c4ccccc4)cc(n2)C3)CC(=O)[O][Cd][O]1 [TD900]
t1/2 (half-life of chelate dissociation) [1]: too unstable | t1/2 (half-life of chelate dissociation, exponential decay fit) [2]: too unstable | t1/2 (half-life of chelate dissociation) [3]: 1.2E^0 hours | t1/2 (half-life of chelate dissociation) [4]: 1.3E^3 ± 5.8E^0 hours
